Assay results taken from patent publication US10894044B2, “Combination of topoisomerase-I inhibitors with immunotherapy in the treatment of cancer” (Board of Regents, The University of Texas System, priority 2015, dated 2021).
Some results were stated once for a whole list of compounds, not compound by compound.

Tested on: patient-derived melanoma cell line 2549 with autologous 2549 TILs
Assay: High throughput caspase 3-based T cell cytotoxicity screen (850 compounds, Comboscore)
Design: species or system human
Details: 1 uM compound 24 h, then autologous T cells 3 h; formula of FIG. 8A
Protocol: Apoptosis was then quantified via a high throughput caspase 3-based cytotoxicity assay. Human melanoma cells were stained with DDAO dye and either: (i) seeded for 24 h in 96 well plates with 1 uM of each of the 850 compounds in our screen or DMSO as a control, (ii) seeded for 24 h and then incubated with autologous T cells for 3 h, or (iii) seeded for 24 h with 1 uM compound, washed and then incubated with autologous T cells for 3 h. Cells were then washed, fixed, permeabilized and stained for activated caspase 3. Flow cytometry was used to quantify staining as a measure of apoptosis.
In one embodiment, a screening approach is disclosed for assaying T-cell mediated cytotoxicity. Human melanoma cancer cell lines (BRAF/NRAS/CKIT/NF1 wild type) were incubated with 1 micromolar concentration of various test compounds for 24 hours. The human melanoma cells were stained with the cell tracker dye DDAO (APC channel) and either: (i) seeded for 24 h in 96 well plates with 1 uM of each of the 850 compounds in our screen or DMSO as a control, (ii) seeded for 24 h and then incubated with autologous T cells for 3 h, or (iii) seeded for 24 h with 1 uM compound, washed and then incubated with autologous T cells for 3 h. Cells were then washed, fixed, permeabilized and stained with a PE-conjugated antibody for activated caspase 3. Flow cytometry was used to quantify staining as a measure of apoptosis. Cells in the indicated gate would be positive for both DDAO (APC) and activated caspase 3 (PE), and were quantified as a percentage of the total number of DDAO-positive tumor cells.
FIG. 1A depicts data obtained from a flow cytometry T cell cytotoxicity assay for high throughput screen. […] The level of cytotoxicity is measured by the percentage of active caspase 3 positive tumor cells (PE-conjugated caspase 3 antibody).
The level of cytotoxicity induced by the drug alone in comparison to the combination of the drug and T cells was evaluated and used to compute a comboscore to identify hits from the screen. […]

Structure (SMILES) | Comboscore
CC[C@@]1(O)C(=O)OCc2c1cc1n(c2=O)Cc2cc3ccccc3nc2-1 [camptothecin, (S)-4-ethyl-4-hydroxy-1H-pyrano[3′,4′:6,7]indolizino[1,2-b] quinoline-3,14-(4H,12H)-dione] | high (high comboscore (>1.5))
CCc1c2c(nc3ccc(OC(=O)N4CCC(N5CCCCC5)CC4)cc13)-c1cc3c(c(=O)n1C2)COC(=O)[C@]3(O)CC [irinotecan, (S)-4,11-diethyl-3,4,12,14-tetrahydro-4-hydroxy-3,14-dioxo1H-pyrano[3′,4′:6,7]-indolizino[1,2-b]quinolin-9-yl-[1,4′bipiperidine]-1′-carboxylate] | high (high comboscore (>1.5))
CC[C@@]1(O)C(=O)OCc2c1cc1n(c2=O)Cc2cc3c(CN(C)C)c(O)ccc3nc2-1.Cl [topotecan, (S)-10-[(dimethylamino)methyl]-4-ethyl-4,9-dihydroxy-1H-pyrano[3′,4′:6,7]indolizino[1,2-b] quinoline-3,14(4H,12H)-dione monohydrochloride] | high (high comboscore (>1.5))
